Experimental data: PMC4480734
Results are given in words; binding and its absence hold for the method and conditions named. In cells and extracts the contact can be indirect. Some binding calls cover weakened binding; strength is not graded here.

The chains behind the UniProt entries cited, without tags or fusion partners.
UniProt P13010: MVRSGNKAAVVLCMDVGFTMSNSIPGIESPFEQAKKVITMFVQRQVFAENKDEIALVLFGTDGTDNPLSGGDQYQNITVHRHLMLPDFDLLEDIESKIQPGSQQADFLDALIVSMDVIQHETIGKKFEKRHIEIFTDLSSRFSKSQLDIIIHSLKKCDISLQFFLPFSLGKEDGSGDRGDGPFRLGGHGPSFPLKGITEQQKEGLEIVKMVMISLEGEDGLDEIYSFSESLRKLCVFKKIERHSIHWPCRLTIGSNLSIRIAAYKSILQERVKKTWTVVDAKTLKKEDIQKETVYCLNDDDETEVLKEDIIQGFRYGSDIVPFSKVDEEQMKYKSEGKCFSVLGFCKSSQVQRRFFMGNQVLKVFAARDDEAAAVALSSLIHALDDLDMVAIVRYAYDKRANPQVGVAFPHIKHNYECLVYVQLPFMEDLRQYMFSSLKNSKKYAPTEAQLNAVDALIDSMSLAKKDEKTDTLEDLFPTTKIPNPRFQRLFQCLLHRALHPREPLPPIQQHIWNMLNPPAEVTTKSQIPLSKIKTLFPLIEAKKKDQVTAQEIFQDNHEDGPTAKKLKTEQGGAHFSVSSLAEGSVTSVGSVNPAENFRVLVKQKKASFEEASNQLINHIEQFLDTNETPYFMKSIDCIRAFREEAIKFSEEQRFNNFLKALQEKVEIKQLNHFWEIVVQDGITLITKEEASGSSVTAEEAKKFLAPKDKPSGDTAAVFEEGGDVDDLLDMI
UniProt Q92793: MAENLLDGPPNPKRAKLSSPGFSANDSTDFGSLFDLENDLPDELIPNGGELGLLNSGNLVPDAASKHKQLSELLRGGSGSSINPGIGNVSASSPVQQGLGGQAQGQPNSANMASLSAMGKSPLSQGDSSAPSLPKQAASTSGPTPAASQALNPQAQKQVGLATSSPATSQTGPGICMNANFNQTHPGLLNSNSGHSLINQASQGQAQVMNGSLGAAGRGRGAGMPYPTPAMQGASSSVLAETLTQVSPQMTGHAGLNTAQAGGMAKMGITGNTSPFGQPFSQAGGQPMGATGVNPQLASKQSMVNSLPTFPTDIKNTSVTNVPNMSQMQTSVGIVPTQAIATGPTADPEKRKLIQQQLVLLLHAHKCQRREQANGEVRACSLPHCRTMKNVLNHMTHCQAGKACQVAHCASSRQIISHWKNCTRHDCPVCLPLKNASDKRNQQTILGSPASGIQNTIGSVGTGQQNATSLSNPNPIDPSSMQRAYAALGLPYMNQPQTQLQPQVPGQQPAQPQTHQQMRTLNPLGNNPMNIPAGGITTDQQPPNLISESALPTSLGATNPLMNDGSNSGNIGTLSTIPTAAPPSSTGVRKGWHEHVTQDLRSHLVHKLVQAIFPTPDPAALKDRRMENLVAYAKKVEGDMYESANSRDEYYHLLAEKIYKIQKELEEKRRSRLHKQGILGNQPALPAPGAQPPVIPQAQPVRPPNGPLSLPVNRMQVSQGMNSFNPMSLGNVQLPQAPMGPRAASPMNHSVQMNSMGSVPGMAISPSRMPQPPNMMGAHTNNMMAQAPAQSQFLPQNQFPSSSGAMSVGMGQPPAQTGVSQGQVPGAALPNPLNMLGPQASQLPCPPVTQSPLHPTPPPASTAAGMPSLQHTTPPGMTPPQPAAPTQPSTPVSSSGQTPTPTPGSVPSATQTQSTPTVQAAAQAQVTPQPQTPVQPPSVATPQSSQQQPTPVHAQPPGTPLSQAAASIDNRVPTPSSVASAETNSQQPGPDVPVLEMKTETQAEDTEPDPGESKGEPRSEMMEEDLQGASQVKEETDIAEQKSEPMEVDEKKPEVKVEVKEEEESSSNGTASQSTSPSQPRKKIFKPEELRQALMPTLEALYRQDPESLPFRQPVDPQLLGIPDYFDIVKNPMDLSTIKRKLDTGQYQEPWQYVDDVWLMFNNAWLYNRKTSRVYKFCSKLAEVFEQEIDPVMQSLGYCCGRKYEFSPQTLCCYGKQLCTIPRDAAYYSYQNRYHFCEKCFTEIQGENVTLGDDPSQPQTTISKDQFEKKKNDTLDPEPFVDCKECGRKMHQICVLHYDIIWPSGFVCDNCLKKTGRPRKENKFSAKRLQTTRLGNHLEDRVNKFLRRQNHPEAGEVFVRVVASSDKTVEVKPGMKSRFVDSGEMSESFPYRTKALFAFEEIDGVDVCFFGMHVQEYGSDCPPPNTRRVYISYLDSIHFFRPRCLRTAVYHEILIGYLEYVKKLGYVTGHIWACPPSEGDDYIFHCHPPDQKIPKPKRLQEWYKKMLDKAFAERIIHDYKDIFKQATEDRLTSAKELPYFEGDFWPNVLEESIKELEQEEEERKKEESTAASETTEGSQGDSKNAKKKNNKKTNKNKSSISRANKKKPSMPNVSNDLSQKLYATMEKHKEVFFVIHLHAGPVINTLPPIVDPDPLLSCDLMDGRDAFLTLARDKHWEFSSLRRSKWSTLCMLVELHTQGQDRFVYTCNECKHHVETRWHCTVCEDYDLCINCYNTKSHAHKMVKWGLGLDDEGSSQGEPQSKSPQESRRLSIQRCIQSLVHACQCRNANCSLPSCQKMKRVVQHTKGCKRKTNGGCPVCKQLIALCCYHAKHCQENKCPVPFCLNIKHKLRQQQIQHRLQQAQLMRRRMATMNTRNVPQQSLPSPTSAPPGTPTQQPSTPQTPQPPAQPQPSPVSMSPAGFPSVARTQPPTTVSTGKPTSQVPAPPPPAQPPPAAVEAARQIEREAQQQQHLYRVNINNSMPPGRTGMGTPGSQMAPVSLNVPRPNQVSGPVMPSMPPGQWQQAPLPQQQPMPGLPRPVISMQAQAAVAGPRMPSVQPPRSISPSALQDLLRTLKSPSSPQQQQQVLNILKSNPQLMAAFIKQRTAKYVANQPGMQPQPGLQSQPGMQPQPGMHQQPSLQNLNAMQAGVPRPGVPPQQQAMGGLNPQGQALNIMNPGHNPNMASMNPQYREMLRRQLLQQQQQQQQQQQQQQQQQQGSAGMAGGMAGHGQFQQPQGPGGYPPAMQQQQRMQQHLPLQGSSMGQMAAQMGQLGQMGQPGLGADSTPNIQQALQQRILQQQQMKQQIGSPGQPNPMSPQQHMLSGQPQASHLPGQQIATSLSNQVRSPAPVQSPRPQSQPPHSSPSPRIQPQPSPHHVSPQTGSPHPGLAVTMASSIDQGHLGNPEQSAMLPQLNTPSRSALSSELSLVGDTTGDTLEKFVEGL

Biological target: Ku80, X-ray repair complementing defective repair in Chinese hamster cells 5 (XRCC5) (human (endogenous in H1299, H460 and A549)) (UniProt P13010)
Assay: co-IP; nuclear extracts (300 μg) of H1299, H460 and A549 cells incubated with a rabbit polyclonal anti-Ku80 antibody or nonimmune rabbit IgG overnight at 4°C; protein A/G agarose beads; washed with PBS; Western blot with a CBP antibody

Substance: CBP, a transcription co-activator (from UniProt Q92793 1-2442)
- binding: binds
